From PubChem BioAssay AID2685 (National Center for Advancing Translational Sciences (NCATS), 2010)
This is one part of the list. Shown are side measurements of this screen, not its main read-out; they come without a call. Most of these compounds were active or inconclusive in the main read-out, so they are no random draw. Words in brackets tell the shape of the fitted curve; partial curves, single points and poor fits give uncertain potencies.

Test: qHTS Assay for Lipid Storage Modulators in Drosophila S3 Cells;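 on cell number change: cells counted by Cell Tracker Red CMTPX staining in the red channel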
Settings: BODIPY lipid droplet fluorescence, 18-24 h; for cell number change: measured here: cell count max response, cells fed with added oleic acid
Summary of the method: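 Drosophila S3 cells loaded with oleic acid (400 uM, as added) and compounds at several concentrations; lipid droplets imaged by 488-nm laser-scanning cytometry, 500–530 nm intensity and object ratio to cell channel. Percent activity normalized to 20 uM Triacsin C.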

[1] = measured here: lipid fluorescence (Fed channel) AC50, cells fed with added oleic acid
[2] = measured here: cell number channel AC50, cells fed with added oleic acid

Question: Which cell number change does the source give for `COc1ccc(Cl)cc1NC(=S)NCCC(c1ccccc1)c1ccccc1` here?
Answer: -23.8%

Question: What about the AC50 [1] of the same molecule?
Answer: 14600 nM [falling, single point]

Question: For `CCCn1c(SCC(=O)Nc2cccc(C(=O)OC)c2)nnc1-c1cccnc1`, which cell number change is on record?
Answer: 20.6%

Question: What does the source list for `CC(=O)N1CCN(C(=O)c2ccc(S(=O)(=O)Nc3ccccc3C)cc2)CC1`?
Answer: cell number change: -34.6%; AC50 [2]: 18400 nM [falling, single point]

Question: For `Cc1ccc(N=C2NC(=O)/C(=C\c3cccs3)S2)cc1C`, which cell number change is on record?
Answer: 22.7%

Question: What about the AC50 [2] of the same molecule?
Answer: 2310 nM [rising, full curve, poor fit]

Question: And the AC50 [1]?
Answer: 8200 nM [rising, partial curve]

Question: What does the source list for `Cc1cccc(C(=O)Nc2ccnc(-c3cccnc3)n2)c1`?
Answer: cell number change: 10.5%; AC50 [1]: 517 nM [rising, partial curve, poor fit]

Question: With `COc1ccc(CNC(=O)COC(=O)CCOc2ccc(C)cc2)cc1` as the molecule, how does the cell number change read?
Answer: 75%

Question: What about the AC50 [2] of the same molecule?
Answer: 16400 nM [rising, single point]

Question: Which cell number change does the source give for `Cc1ccc(CCNC(=O)C2CCC(=O)N(Cc3ccccc3F)C2)o1` (stereo not drawn) here?
Answer: -6.1%

Question: Which results are given for `Cc1cccc(NC(=O)CSc2ncnc3sc(C)c(C)c23)n1`?
Answer: cell number change: -22.1%; AC50 [1]: 2910 nM [falling, partial curve]

Question: Which results are given for `CCOc1ccc(-c2nnc3ccc(SCc4ccc(C(=O)OC)o4)nn23)cc1`?
Answer: cell number change: -19%; AC50 [1]: 6510 nM [rising, partial curve]

Question: Which cell number change does the source give for `CCOC(=O)[C@H]1[C@H]2COc3ccccc3[C@@H]2N2C(=O)c3c(C)cc(C)cc3NC(=O)[C@@]12C` here?
Answer: -29.3%

Question: Which results are given for `BrC(/C=N/Nc1nc(N2CCOCC2)nc(N2CCOCC2)n1)=C/c1ccccc1`?
Answer: cell number change: -19.5%; AC50 [1]: 32600 nM [falling, single point]

Question: Which cell number change does the source give for `COC(=O)c1ccccc1S(=O)(=O)NNC(=O)c1ccccc1-n1cccc1` here?
Answer: -20.8%

Question: And the AC50 [1]?
Answer: 22400 nM [falling, single point]

Question: With `O=C(C/C=N\OCc1c(Cl)cccc1Cl)Oc1ccc(Cl)cc1Cl` as the molecule, how does the cell number change read?
Answer: -7.09%

Question: With `CN(C)Cc1c(O)ccc2c(=O)c(-c3ccc(Cl)cc3)coc12` as the molecule, how does the cell number change read?
Answer: 3.17%

Question: And the AC50 [1]?
Answer: 18400 nM [falling, partial curve, poor fit]

Question: Which cell number change does the source give for `Cc1cc(=O)c(C(=O)Nc2cccc(N3CCCC3=O)c2)nn1-c1ccccc1F` here?
Answer: -10.1%

Question: What about the AC50 [2] of the same molecule?
Answer: 651 nM [falling, partial curve, poor fit]

Question: What about the AC50 [1] of the same molecule?
Answer: 580 nM [falling, partial curve, poor fit]

Question: What does the source list for `CCN(CC)C(=O)C(=O)Nc1ccc(Oc2ccccc2)cc1`?
Answer: cell number change: -3.12%; AC50 [1]: 2590 nM [falling, partial curve, poor fit]

Question: Which cell number change does the source give for `Cc1nn(-c2ccccc2)c(C)c1NC(=O)COC(=O)CCCOc1ccccc1` here?
Answer: 1.31%

Question: And the AC50 [1]?
Answer: 103 nM [falling, full curve, poor fit]

Question: For `CC(=O)c1cccc(S(=O)(=O)Nc2ccc3nc(C)sc3c2)c1`, which cell number change is on record?
Answer: 17.2%

Question: Which cell number change does the source give for `O=C(O)c1ccccc1C(=O)c1ccc(Br)s1` here?
Answer: 7.59%

Question: What about the AC50 [1] of the same molecule?
Answer: 23.1 nM [falling, full curve]

Question: With `O=C(N1CCCCC1)N1CCN(C(c2ccccc2)c2ccccc2)CC1` as the molecule, how does the AC50 [2] read?
Answer: 146 nM [falling, full curve, poor fit]

Question: With `Cc1csc(NC(=O)CSc2ccc([N+](=O)[O-])cn2)n1` as the molecule, how does the cell number change read?
Answer: -40.1%

Question: And the AC50 [2]?
Answer: 35500 nM [falling, single point]

Question: Which cell number change does the source give for `COc1ccc(C)cc1N(CC(=O)Nc1ccc(S(=O)(=O)N2CCCC2)cc1)S(C)(=O)=O` here?
Answer: -15%

Question: What about the AC50 [2] of the same molecule?
Answer: 1840 nM [falling, partial curve]

Question: What about the AC50 [1] of the same molecule?
Answer: 10300 nM [falling, partial curve]

Question: For `CCOc1ccc(C(=O)NC(=S)Nc2ccccc2N2CCCCC2)cc1[N+](=O)[O-]`, which cell number change is on record?
Answer: 16.3%

Question: What about the AC50 [1] of the same molecule?
Answer: 411 nM [rising, full curve]

Question: With `CCCCN(CCCC)c1nc2ccccc2nc1NS(=O)(=O)c1ccc(NC(C)=O)cc1` as the molecule, how does the cell number change read?
Answer: -4.07%

Question: With `O=C(Nc1cc(C(F)(F)F)ccc1N1CCCC1)c1ccc2c(c1)OCO2` as the molecule, how does the AC50 [1] read?
Answer: 6510 nM [rising, single point]

Question: Which cell number change does the source give for `Cc1nc(C)c(NC(=O)OC(C)C)cc1NC(=O)OC(C)C` here?
Answer: -4.76%

Question: What does the source list for `CCN(CC(=O)Nc1c(F)cccc1F)C(=O)C1CCN(S(=O)(=O)c2ccc(F)cc2)CC1`?
Answer: cell number change: 0.549%; AC50 [1]: 103 nM [rising, full curve, poor fit]

Question: For `COC(=O)CSC1=C(C#N)C(c2ccc(C)cc2)C2=C(CCCC2=O)N1` (stereo not drawn), which cell number change is on record?
Answer: 2.67%

Question: And the AC50 [1]?
Answer: 29100 nM [rising, single point]

Question: For `O=C(COC(=O)c1ccco1)NCc1ccc2c(c1)OCO2`, which AC50 [1] is on record?
Answer: 16400 nM [rising, partial curve, poor fit]

Question: Which cell number change does the source give for `COc1ccc(/C=C2\Oc3cc(OCC(=O)N4CCC[C@H]4CO)ccc3C2=O)c(OC)c1` here?
Answer: -27.2%

Question: What about the AC50 [1] of the same molecule?
Answer: 18400 nM [falling, single point]

Question: With `CCOc1cc2[nH]c(=S)n(CC3CCCO3)c(=O)c2cc1OCC` (stereo not drawn) as the molecule, how does the AC50 [2] read?
Answer: 411 nM [rising, full curve]

Question: What about the AC50 [1] of the same molecule?
Answer: 580 nM [rising, full curve]

Question: Which results are given for `CCN1c2ccccc2-c2nc3ccccc3n2C1c1ccccn1` (stereo not drawn)?
Answer: cell number change: 14%; AC50 [1]: 3260 nM [rising, full curve, poor fit]

Question: With `COc1cccc(OCCCCN2CC(C)OC(C)C2)c1` (stereo not drawn) as the molecule, how does the cell number change read?
Answer: 49.8%

Question: For `C[C@@H](CSc1ccccc1)CN1CC[C@H](NC(=O)OCc2ccccc2)CCC1=O`, which AC50 [1] is on record?
Answer: 29100 nM [falling, single point]

Question: Which cell number change does the source give for `CC1CCCCC1NC(=O)Cn1c(CN2CCCCC2)nc2ccccc2c1=O` (stereo not drawn) here?
Answer: 15.2%

Question: And the AC50 [2]?
Answer: 920 nM [rising, partial curve, poor fit]

Question: What about the AC50 [1] of the same molecule?
Answer: 2060 nM [rising, partial curve]

Question: What does the source list for `Cc1cc(NC(=O)c2noc3c2CCCCC3)nn1Cc1ccc(Cl)cc1`?
Answer: cell number change: -0.785%; AC50 [1]: 6510 nM [rising, partial curve]

Question: With `O=C(COc1ccccc1Cc1ccccc1)Nc1cccc(S(=O)(=O)N2CCOCC2)c1` as the molecule, how does the cell number change read?
Answer: -15%

Question: For `O=C(N/N=C/c1cccc([N+](=O)[O-])c1)c1cc2ccccc2o1`, which cell number change is on record?
Answer: 22.2%

Question: And the AC50 [1]?
Answer: 103 nM [rising, full curve, poor fit]

Question: Which results are given for `CCOC(=O)N1CCC(NC(=O)c2cnn3c(C(F)(F)F)cc(-c4cccc(OC)c4)nc23)CC1`?
Answer: cell number change: 2.15%; AC50 [1]: 18400 nM [rising, single point]

Question: Which results are given for `CS(=O)(=O)c1cccc(NC(=O)CSc2nnc3n2CCCCC3)c1`?
Answer: cell number change: -31.9%; AC50 [2]: 9200 nM [falling, partial curve, poor fit]; AC50 [1]: 4.61 nM [rising, full curve, poor fit]

Question: For `O=C(NNC(=O)c1sccc1-n1cccc1)c1ccc(F)cc1`, which cell number change is on record?
Answer: -15.9%

Question: And the AC50 [2]?
Answer: 5.8 nM [falling, full curve, poor fit]

Question: With `C/C(=N\NC(=S)Nc1ccccc1)C1Cc2ccccc2C(=O)O1` (stereo not drawn) as the molecule, how does the AC50 [1] read?
Answer: 580 nM [rising, single point]

Question: Which cell number change does the source give for `COCCn1c(Sc2nc(C)cs2)nc2c1c(=O)[nH]c(=O)n2C` here?
Answer: 3.9%

Question: Which cell number change does the source give for `COc1ccc2c(c1)OC1=C(C(=O)CCC1)C2C1=C(O)CCCC1=O` (stereo not drawn) here?
Answer: -32.2%

Question: And the AC50 [2]?
Answer: 651 nM [falling, partial curve]

Question: With `Nc1cccc2c1C(=O)N(C(=O)c1cccc(S(=O)(=O)N3CCCCCC3)c1)C2=O` as the molecule, how does the cell number change read?
Answer: -8.69%

Question: And the AC50 [1]?
Answer: 3660 nM [falling, partial curve]

Question: With `COc1ccc(S(=O)(=O)N(C)c2ccc(C(=O)NCc3ccco3)cc2)cc1OC` as the molecule, how does the AC50 [1] read?
Answer: 2910 nM [rising, single point]

Question: For `CC(=O)c1cccc(NC(=O)C2CCN(S(=O)(=O)c3cccs3)CC2)c1`, which cell number change is on record?
Answer: 1.05%

Question: What about the AC50 [1] of the same molecule?
Answer: 6.51 nM [rising, full curve, poor fit]

Question: With `NS(=O)(=O)c1ccc2nc(NC(=O)c3ccc(Br)o3)sc2c1` as the molecule, how does the cell number change read?
Answer: -28.2%

Question: For `COc1ccc(NC(=O)COC(=O)c2ccc(C)c(S(=O)(=O)N3CCCCC3)c2)cc1`, which cell number change is on record?
Answer: -0.937%

Question: What about the AC50 [1] of the same molecule?
Answer: 29100 nM [falling, single point]

Question: For `Cc1ccc(CNC(=O)Nc2cccc(C)c2)cc1`, which cell number change is on record?
Answer: -17%

Question: What about the AC50 [2] of the same molecule?
Answer: 82 nM [falling, full curve, poor fit]

Question: And the AC50 [1]?
Answer: 92 nM [falling, full curve, poor fit]

Question: For `Cc1ccc(NC(=O)C2OCCc3ccccc32)cc1Cl` (stereo not drawn), which cell number change is on record?
Answer: -1.23%

Question: What about the AC50 [2] of the same molecule?
Answer: 103 nM [falling, full curve, poor fit]

Question: For `CC1CC(C)(C)NC(=S)N1CCC(=O)N1CCN(c2ccccc2)CC1` (stereo not drawn), which cell number change is on record?
Answer: 13.6%

Question: What about the AC50 [1] of the same molecule?
Answer: 29100 nM [rising, single point]

Question: For `COc1ccc(CCNc2ccc([N+](=O)[O-])cn2)cc1`, which cell number change is on record?
Answer: -15.1%

Question: For `COc1ccc2c(c1)nc(N)n2Cc1ccccc1`, which cell number change is on record?
Answer: 14.7%

Question: For `Cc1ccc(OCC(=O)N2CCCC(CO)(CCOc3ccccc3)C2)cc1` (stereo not drawn), which AC50 [1] is on record?
Answer: 29100 nM [falling, single point]

Question: Which AC50 [2] does the source give for `Cc1ccc2cc(COC(=O)c3ccncc3)c(=O)[nH]c2c1` here?
Answer: 580 nM [rising, single point]

Question: With `CN(CC(=O)Nc1ccccc1Cl)C(=O)Cn1cc(C(F)(F)F)cc(Cl)c1=O` as the molecule, how does the cell number change read?
Answer: 21%

Question: For `Cc1ccc(C(=O)NC(=S)NNS(=O)(=O)c2ccc(C)cc2)cc1`, which cell number change is on record?
Answer: 5.21%

Question: What about the AC50 [1] of the same molecule?
Answer: 731 nM [falling, full curve, poor fit]

Question: With `CCOC(=O)NC(Nc1sc2c(c1C(=O)OC)CCN(C)C2)(C(F)(F)F)C(F)(F)F` as the molecule, how does the cell number change read?
Answer: 38.7%

Question: With `O=C(NCCN1CCCC1)C1CCN(S(=O)(=O)N2CCC3(CC2)OCCO3)CC1` as the molecule, how does the AC50 [1] read?
Answer: 23100 nM [falling, partial curve]

Question: For `CCCCc1ccc(NC(=S)N2CCN(C(=O)OCC)CC2)cc1`, which cell number change is on record?
Answer: -6.08%

Question: And the AC50 [1]?
Answer: 29100 nM [rising, single point]

Question: For `N#CC1=C(N)NC(SCC(=O)O)=C(C#N)C12CCCC2`, which cell number change is on record?
Answer: 1.02%

Question: And the AC50 [1]?
Answer: 29100 nM [rising, single point]

Question: Which results are given for `O=S(=O)([N-]c1nc2ccccc2nc1-[n+]1ccc(-c2ccncc2)cc1)c1ccccc1`?
Answer: cell number change: -30.6%; AC50 [1]: 23100 nM [falling, partial curve, poor fit]
